Experimental data: publication PMC7461331, “Stability of Begomoviral pathogenicity determinant βC1 is modulated by mutually antagonistic SUMOylation and SIM interactions” (BMC Biology, 2020)

Assays:
[1] = target: MBP-tagged SyYVCV βC1 expressed in plants (Synedrella yellow vein clearing virus); test: co-IP; MBP-βC1 transiently co-expressed with GFP-tagged SUMO proteins in N. tabacum; IP with anti-MBP (MBP magnetic beads), blot with anti-GFP and anti-MBP; 4-20% denaturing reducing gel
[2] = target: SyYVCV βC1 fused to the binding domain (yeast two-hybrid bait) (Synedrella yellow vein clearing virus); test: two-hybrid; βC1 fused to the binding domain (pGBKT7) as bait, SUMO proteins fused to the activation domain (pGADT7) as prey, yeast AH109; selected on -Leu -Trp, screened on -Leu -Trp -His with or without 3AT (0.2 mM 3AT for NbSUMO1) and on -Leu -Trp -His -Ade

Binder	binding [1]	binding [2]
GFP-tagged AtSUMO3 (protein, UniProt Q9FLP5 1-111) MSNPQDDKPIDQEQEAHVILKVKSQDGDEVLFKNKKSAPLKKLMYVYCDRRGLKLDAFAFIFNGARIGGLETPDELDMEDGDVIDACRAMSGGLRANQRQWSYMLFDHNGL	binds weakly	
GFP-tagged AtSUMO5 (protein, UniProt Q8VZI7 1-108) MVSSTDTISASFVSKKSRSPETSPHMKVTLKVKNQQGAEDLYKIGTHAHLKKLMSAYCTKRNLDYSSVRFVYNGREIKARQTPAQLHMEEEDEICMVMELGGGGPYTP	binds weakly	
AtSUMO3 fused to the activation domain (yeast two-hybrid prey) (protein, UniProt Q9FLP5 1-111) MSNPQDDKPIDQEQEAHVILKVKSQDGDEVLFKNKKSAPLKKLMYVYCDRRGLKLDAFAFIFNGARIGGLETPDELDMEDGDVIDACRAMSGGLRANQRQWSYMLFDHNGL		binds
AtSUMO5 fused to the activation domain (yeast two-hybrid prey) (protein, UniProt Q8VZI7 1-108) MVSSTDTISASFVSKKSRSPETSPHMKVTLKVKNQQGAEDLYKIGTHAHLKKLMSAYCTKRNLDYSSVRFVYNGREIKARQTPAQLHMEEEDEICMVMELGGGGPYTP		binds

These are yes or no findings as the source states them, for the method shown. Binding can be weak; no strength is given. Where a sequence is shown, tags or fusion partners need not be part of it. For some of these results: In cells and extracts the contact can be indirect.
